The exact form of at least one protein or probe is not confirmed. Where cells or extracts were used, other partners may take part. Negatives hold for the conditions tested. For some assays here: At least one verdict rests on a figure or table, not on a statement of the authors. For some assays here: Tags and fusion partners may be left off the protein sequences shown. For some assays here: A weaker result is weaker than the reference pair of the same experiment.
Legend:
Test in all cases: EMSA
FLAG-PAX1 (mouse) = FLAG-PAX1 (mouse) (UniProt P09084); conditions: Active Motif Gelshift Chemiluminescent EMSA kit, HEK293T nuclear extracts, 5-100 fmol biotin probe, for SOX9 20 uL with 1 ug poly(dG-dC) and 20 ug BSA, protein in an extract, protein details: N-terminal FLAG, label: biotin 3' end
PAX1 (mouse) = PAX1 (mouse) (UniProt P09084); conditions: with SOX9 extract; Active Motif Gelshift Chemiluminescent EMSA kit, HEK293T nuclear extracts, 5-100 fmol biotin probe; for SOX9 20 uL with 1 ug poly(dG-dC) and 20 ug BSA; protein in an extract; label: biotin 3' end
SOX9 (mouse) = molecular target: T1, SOX9 (mouse) (UniProt Q04887); conditions: Active Motif Gelshift Chemiluminescent EMSA kit, HEK293T nuclear extracts, 5-100 fmol biotin probe, for SOX9 20 uL with 1 ug poly(dG-dC) and 20 ug BSA, protein in an extract, label: biotin 3' end
T1 sequence (looked up, limits assumed): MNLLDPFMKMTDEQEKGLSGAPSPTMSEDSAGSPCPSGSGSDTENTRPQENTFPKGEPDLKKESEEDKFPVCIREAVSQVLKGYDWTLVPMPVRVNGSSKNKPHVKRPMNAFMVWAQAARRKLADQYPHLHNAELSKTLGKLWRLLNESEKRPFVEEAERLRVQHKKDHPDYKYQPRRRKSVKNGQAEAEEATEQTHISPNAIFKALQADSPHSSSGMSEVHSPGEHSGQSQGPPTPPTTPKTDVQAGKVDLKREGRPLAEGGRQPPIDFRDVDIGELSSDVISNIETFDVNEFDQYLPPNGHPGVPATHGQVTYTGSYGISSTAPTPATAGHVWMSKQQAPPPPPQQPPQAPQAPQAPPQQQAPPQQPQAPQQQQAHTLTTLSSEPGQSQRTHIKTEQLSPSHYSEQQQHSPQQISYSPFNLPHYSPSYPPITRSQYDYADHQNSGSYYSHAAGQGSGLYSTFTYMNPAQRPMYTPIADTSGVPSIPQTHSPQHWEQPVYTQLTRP

Sequences of proteins named here, by UniProt entry; tags and fusion partners are left off. A change or cut given only in a name is not applied to a line headed by its entry.
UniProt P09084: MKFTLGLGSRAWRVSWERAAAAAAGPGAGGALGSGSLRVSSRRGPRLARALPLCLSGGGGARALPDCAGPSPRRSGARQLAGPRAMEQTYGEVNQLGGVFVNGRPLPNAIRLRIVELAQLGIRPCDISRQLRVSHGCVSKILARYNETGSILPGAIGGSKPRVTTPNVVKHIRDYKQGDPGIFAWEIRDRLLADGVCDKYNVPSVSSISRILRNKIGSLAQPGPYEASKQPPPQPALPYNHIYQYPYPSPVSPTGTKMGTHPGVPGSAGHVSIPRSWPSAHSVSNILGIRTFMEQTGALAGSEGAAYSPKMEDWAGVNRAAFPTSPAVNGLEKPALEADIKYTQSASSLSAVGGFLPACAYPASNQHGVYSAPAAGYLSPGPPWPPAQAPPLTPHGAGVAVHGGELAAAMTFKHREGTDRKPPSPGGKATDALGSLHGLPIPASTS
UniProt P47242: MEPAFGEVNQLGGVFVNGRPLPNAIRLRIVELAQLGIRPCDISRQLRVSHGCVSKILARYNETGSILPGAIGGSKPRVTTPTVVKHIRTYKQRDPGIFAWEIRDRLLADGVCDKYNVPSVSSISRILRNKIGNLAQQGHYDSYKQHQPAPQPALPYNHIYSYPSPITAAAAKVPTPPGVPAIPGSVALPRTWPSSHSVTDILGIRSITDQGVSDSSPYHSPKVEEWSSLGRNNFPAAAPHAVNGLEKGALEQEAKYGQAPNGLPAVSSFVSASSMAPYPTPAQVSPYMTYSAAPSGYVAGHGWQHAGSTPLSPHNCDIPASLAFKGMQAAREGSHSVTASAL

FLAG-PAX9 (mouse) = FLAG-PAX9 (mouse) (UniProt P47242); conditions: Active Motif Gelshift Chemiluminescent EMSA kit, HEK293T nuclear extracts, 5-100 fmol biotin probe, for SOX9 20 uL with 1 ug poly(dG-dC) and 20 ug BSA, protein in an extract, protein details: N-terminal FLAG, label: biotin 3' end

| Sequence | binding result (FLAG-PAX1 (mouse)) | binding result (PAX1 (mouse)) | also measured |
| --- | --- | --- | --- |
| TTTCAAACCTGGCAAAAAAAATAGGTGCCTTGTGTTCAGGCTTATGACTCTGGAA (double strand) [UE m1] | binds | – | – |
| TTTCAAACCTGGCAGGGTGAATAGGTGCCTTGTGTTCAGGCTTATGACTCTGGAA (double strand) [UE wt 301-355] | – | binds | binding result (FLAG-PAX1 (mouse); anti-FLAG supershift): binds; binding result (SOX9 (mouse)): binds; binding result (SOX9 (mouse); with PAX1 extract added (PAX1 competes)): binds more weakly; binding result (FLAG-PAX9 (mouse); anti-FLAG supershift): binds |
| TTTCAAACCTGGCAGGGTGAATAGGTGCCTTGTGTTCAAAAATATGACTCTGGAA (double strand) [UE m6] | no binding | – | – |
| TTTCAAACCTGGCAGGGTGAATAGGTGAAAAATGTTCAGGCTTATGACTCTGGAA (double strand) [UE m3 (SOX9 site mutated)] | binds | binds | binding result (SOX9 (mouse); with PAX1 extract): no binding; binding result (FLAG-PAX9 (mouse)): binds |
| TTTCAAACCTGGCAGGGTGAATAGGTGCCTTGTGTTCAGGCTTATGACTCTAATT (double strand) [UE m9] | binds | – | – |
| TTTCAAACCTGGCAGGGTGAATAGGTGCCTTGTGTTCAGGCTTATGACTCAAATT (double strand) [UE m8] | no binding | – | – |
| TTTCAAACCTGGCAGGGTGAATAGGTGCCAAAAATTCAGGCTTATGACTCTGGAA (double strand) [UE m5] | no binding | – | – |
| TTTCAAACCTGGCAGGGTGAAAAAAAGCCTTGTGTTCAGGCTTATGACTCTGGAA (double strand) [UE m2] | binds | – | – |
| TTTCAAACCTGGCAGGGTGAATAGGTGCCTTGTGTTCAGGCTTAAAAATCTGGAA (double strand) [UE m7 (PAX1/9 site mutated)] | no binding | no binding | binding result (SOX9 (mouse); with PAX1 extract): binds; binding result (FLAG-PAX9 (mouse)): no binding |
| TTTCAAACCTGGCAGGGTGAATAGGTGCAAAAAGTTCAGGCTTATGACTCTGGAA (double strand) [UE m4] | binds | – | – |
